Source: patent US8415342B2, “Besifloxacin ophthalmic composition for the treatment or control of infection” (Bausch & Lomb Incorporated, priority 2008, dated 2013)
For at least one compound, name, drawing or mass did not settle the structure.

System: Anaerobic Bacteria
Assay: MIC against anaerobic bacteria (Table 7)
Type: cell-based
Set-up: unit not given beside the values

Compound: CCC[C@@H]1C[C@@H](C(=O)N[C@@H]([C@H]2O[C@H](SC)[C@H](O)[C@@H](O)[C@H]2O)[C@H](C)Cl)N(C)C1 [Clindamycin]
- MIC Range (Bacteroides fragilis (N = 20)): 0.5->8
- MIC Range (Prevotella spp. (N = 20)): ≦0.03->8
